From the supplement of paper PMC11006884
Shown are results outside the selection of targets with a hit, which stands elsewhere. This is a noisy data set. The entries are a selection whose mix differs from that of the whole data set.

The chains behind the UniProt entries cited, without tags or fusion partners. Where a name states a change or a piece, a line headed by the entry shows the natural chain unless it says otherwise.
UniProt Q9H2G2: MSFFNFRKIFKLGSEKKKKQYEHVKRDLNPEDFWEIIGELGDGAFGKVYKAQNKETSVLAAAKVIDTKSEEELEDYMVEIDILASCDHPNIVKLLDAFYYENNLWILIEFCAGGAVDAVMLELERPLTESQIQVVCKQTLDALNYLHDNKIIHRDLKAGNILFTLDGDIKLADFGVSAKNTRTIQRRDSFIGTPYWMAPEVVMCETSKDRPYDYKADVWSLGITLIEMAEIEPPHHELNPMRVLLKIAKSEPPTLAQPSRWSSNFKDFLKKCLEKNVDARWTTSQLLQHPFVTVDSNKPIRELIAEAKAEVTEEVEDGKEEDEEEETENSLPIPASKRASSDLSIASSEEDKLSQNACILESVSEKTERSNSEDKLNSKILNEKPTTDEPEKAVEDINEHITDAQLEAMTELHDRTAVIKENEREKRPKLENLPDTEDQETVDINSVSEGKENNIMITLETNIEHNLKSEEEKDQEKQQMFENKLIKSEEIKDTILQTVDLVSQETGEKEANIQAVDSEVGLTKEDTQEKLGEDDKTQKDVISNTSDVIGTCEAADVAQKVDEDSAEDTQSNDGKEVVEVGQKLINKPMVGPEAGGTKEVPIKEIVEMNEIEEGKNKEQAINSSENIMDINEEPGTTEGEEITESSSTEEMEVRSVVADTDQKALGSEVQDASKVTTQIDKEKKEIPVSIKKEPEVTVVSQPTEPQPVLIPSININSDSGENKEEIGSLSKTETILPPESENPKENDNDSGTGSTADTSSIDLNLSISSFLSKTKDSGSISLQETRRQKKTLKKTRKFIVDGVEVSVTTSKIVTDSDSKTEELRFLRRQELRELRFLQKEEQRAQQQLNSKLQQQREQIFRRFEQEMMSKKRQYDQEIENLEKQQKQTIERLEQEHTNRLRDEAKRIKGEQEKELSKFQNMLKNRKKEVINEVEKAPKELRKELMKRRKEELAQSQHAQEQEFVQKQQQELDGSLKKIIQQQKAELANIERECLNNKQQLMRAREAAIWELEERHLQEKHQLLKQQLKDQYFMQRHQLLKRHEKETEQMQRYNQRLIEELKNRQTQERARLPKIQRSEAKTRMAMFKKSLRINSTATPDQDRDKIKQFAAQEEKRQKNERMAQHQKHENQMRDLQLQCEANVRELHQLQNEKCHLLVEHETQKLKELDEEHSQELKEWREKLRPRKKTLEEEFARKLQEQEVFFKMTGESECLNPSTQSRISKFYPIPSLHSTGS
UniProt Q9BW19: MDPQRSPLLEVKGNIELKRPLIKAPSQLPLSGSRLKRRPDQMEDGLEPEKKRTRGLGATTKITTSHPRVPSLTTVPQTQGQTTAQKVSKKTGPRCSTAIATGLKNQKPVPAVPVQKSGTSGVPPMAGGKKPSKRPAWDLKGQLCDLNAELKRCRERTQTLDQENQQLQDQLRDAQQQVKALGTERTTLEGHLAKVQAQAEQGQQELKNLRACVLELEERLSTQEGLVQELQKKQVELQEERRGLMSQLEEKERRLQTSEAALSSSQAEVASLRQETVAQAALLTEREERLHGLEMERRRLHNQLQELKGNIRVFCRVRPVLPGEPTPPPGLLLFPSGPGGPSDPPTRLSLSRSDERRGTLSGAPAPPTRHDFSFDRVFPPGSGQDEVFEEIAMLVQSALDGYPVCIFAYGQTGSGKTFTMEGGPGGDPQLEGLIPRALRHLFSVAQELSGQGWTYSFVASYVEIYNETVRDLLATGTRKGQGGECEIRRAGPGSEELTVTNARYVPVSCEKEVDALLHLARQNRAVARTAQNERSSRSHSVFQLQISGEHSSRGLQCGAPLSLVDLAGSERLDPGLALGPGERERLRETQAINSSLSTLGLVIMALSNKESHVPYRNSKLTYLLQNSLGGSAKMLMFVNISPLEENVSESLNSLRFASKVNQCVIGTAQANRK
UniProt Q9BV68: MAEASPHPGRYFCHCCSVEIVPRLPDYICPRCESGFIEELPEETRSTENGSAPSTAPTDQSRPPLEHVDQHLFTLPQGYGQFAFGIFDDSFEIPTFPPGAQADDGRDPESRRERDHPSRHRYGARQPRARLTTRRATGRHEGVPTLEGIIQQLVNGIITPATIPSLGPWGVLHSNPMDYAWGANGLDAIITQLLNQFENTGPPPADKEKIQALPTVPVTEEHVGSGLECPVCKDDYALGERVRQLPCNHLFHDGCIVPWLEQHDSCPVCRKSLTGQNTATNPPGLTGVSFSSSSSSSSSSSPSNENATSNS
UniProt Q9H0H5: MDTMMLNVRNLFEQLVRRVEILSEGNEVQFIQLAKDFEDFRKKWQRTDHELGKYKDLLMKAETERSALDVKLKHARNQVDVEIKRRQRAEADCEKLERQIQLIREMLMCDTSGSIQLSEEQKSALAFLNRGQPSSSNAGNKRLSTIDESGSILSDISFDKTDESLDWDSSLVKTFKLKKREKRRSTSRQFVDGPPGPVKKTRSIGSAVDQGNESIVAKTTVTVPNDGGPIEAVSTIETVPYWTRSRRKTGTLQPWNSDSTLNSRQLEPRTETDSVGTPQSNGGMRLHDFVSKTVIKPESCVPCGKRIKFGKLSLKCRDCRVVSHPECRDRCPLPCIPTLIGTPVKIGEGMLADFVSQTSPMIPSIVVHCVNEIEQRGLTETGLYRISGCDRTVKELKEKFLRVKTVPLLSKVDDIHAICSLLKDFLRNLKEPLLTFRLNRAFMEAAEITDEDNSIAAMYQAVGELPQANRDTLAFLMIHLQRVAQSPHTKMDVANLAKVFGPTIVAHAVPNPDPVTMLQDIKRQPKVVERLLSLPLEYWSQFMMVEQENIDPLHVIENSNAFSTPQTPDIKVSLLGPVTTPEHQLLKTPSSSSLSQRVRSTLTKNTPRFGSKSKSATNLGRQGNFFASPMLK
UniProt Q9BW62: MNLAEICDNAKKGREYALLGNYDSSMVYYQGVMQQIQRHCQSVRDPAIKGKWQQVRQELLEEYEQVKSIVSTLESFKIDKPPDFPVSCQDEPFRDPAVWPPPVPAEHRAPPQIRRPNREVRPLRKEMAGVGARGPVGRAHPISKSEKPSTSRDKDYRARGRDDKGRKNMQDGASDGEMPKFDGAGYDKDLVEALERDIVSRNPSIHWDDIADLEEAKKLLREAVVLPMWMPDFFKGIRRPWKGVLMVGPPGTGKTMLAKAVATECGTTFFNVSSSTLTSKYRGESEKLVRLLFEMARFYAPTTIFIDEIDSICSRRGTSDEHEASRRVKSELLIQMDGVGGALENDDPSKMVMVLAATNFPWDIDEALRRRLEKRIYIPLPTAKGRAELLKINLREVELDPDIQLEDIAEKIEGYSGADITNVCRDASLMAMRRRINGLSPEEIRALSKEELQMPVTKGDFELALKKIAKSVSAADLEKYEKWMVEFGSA
UniProt Q9GZR7: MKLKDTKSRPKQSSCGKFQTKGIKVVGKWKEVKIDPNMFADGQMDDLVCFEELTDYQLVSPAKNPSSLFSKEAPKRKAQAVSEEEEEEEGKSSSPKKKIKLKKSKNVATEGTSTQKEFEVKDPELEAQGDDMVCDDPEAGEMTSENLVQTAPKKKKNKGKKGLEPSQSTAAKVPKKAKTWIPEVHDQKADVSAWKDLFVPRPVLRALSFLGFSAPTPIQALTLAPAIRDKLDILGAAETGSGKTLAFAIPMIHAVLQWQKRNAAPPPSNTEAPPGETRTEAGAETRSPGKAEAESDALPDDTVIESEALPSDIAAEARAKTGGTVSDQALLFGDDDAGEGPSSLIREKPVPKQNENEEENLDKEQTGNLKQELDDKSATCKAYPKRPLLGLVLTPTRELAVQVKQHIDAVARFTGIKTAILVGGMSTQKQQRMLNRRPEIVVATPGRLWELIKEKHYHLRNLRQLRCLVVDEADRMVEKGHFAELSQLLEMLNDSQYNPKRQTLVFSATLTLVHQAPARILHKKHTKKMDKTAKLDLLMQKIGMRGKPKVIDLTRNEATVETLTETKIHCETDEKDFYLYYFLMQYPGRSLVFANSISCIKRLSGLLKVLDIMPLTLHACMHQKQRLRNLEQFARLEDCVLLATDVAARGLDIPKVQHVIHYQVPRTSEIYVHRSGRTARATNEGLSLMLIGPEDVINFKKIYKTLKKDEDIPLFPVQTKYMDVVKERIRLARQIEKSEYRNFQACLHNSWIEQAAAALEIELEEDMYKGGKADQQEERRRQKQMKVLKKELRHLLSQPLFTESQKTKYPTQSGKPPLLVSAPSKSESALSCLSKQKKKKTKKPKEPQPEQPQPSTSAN
UniProt Q9H0C8: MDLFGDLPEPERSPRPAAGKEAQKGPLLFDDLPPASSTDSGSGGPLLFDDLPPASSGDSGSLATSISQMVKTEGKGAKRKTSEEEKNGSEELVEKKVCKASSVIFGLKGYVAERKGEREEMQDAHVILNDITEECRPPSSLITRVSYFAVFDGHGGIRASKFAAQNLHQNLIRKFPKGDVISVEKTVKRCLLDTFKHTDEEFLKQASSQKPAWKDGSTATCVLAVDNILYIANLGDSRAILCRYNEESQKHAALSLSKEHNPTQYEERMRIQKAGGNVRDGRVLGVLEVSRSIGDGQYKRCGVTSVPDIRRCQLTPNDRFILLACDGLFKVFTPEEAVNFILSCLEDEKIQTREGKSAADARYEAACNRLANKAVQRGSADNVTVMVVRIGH
UniProt Q9BTE3: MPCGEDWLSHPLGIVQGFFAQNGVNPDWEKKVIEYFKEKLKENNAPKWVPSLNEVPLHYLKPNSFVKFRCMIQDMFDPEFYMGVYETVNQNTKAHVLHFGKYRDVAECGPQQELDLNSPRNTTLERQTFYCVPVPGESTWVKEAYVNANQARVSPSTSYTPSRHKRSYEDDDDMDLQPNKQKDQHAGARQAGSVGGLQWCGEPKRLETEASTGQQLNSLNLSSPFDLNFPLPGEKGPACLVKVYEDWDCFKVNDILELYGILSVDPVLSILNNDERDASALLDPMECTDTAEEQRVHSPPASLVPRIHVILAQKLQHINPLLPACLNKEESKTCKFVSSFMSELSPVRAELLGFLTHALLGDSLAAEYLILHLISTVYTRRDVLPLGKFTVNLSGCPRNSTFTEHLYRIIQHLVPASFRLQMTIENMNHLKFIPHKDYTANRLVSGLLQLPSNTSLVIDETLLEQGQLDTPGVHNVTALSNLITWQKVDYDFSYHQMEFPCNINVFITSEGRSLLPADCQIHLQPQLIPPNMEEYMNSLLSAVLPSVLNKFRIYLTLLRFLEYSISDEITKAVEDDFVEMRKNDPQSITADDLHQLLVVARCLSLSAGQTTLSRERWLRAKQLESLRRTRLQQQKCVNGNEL
UniProt Q9H063: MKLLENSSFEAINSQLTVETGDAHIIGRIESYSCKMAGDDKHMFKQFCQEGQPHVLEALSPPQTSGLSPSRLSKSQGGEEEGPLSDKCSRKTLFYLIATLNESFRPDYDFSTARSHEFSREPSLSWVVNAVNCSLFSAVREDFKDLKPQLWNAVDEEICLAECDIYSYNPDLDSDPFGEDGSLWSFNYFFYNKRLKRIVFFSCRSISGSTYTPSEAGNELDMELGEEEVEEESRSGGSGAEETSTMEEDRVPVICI
UniProt Q9C0B7: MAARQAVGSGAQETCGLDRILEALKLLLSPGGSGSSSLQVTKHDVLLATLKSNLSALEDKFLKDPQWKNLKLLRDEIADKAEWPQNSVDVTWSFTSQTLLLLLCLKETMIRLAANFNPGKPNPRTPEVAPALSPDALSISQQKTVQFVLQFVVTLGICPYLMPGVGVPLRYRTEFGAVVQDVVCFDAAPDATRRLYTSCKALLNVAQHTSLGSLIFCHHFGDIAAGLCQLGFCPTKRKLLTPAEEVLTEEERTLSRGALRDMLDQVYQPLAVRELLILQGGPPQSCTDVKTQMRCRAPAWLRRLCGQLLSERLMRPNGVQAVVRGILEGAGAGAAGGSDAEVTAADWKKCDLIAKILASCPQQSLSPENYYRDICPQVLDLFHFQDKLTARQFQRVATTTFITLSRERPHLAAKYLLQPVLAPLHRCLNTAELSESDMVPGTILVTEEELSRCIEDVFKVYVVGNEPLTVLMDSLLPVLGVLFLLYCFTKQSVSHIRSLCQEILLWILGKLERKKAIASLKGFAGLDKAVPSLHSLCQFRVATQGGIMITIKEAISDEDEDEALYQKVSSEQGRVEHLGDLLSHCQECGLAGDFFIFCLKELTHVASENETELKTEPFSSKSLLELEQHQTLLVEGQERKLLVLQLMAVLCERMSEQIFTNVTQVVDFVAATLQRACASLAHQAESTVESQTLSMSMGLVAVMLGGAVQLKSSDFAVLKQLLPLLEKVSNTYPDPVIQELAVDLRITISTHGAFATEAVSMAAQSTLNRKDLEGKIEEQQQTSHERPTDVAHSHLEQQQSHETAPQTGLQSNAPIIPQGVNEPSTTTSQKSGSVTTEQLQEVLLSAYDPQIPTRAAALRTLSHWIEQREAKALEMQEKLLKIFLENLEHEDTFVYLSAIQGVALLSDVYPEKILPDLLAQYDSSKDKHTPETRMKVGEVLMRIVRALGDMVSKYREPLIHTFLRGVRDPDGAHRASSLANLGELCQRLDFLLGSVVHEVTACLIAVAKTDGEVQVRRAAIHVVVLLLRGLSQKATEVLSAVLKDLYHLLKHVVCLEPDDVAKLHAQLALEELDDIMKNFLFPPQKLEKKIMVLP

Compound: COC(=O)/C=C/c1ccccc1 [methyl cinnamate]
Test: log2 ratio of iodoacetamide-alkyne labeling of the cysteine site, DMSO over compound (competition); higher = stronger covalent engagement of the cysteine by the compound, active = 1 or more
Conditions: 500 µM; treatment time 1 h; system: HEK293T cell lysate
Procedure, shortened: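 HEK293T lysate at 2 mg/mL was treated with vehicle or electrophile (500 µM) for 1 h at ambient temperature, then labelled with iodoacetamide alkyne (1 h), clicked to sCIP-TMT reagents, pooled, digested with trypsin overnight at 37 °C, enriched on streptavidin and eluted with acid. Peptides were analysed by Orbitrap Eclipse LC-MS/MS with FAIMS and quantified in FragPipe, using duplicate channels and three replicates, with cysteines quantified in only one replicate excluded. The log2 competition ratio for each cysteine is the mean control-channel reporter intensity divided by the mean compound-channel reporter intensity.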

log2 ratio of iodoacetamide-alkyne labeling, inactive:
DIDO1 C455 (UniProt Q9BTC0) 0.313
SLK C1212 (UniProt Q9H2G2) 0.35
RPAP1 C185 (UniProt Q9BWH6) 0.296
KIFC1 C663 (UniProt Q9BW19) 0.23
COPS4 C378 (UniProt Q9BT78) -0.0659
RNF126 C15 (UniProt Q9BV68) 0.0875
UniProt Q9H1B7_C35 -0.0086
TANC1 C1651 (UniProt Q9C0D5) 0.376
DESI2 C108 (UniProt Q9BSY9) 0.441
ACTR6 C339 (UniProt Q9GZN1) 0.0523
UniProt Q9H0G5_C171 0.115
UniProt Q9BQI3_C466 0.159
RAB3GAP2 C78 (UniProt Q9H2M9) -0.0638
RACGAP1 C419 (UniProt Q9H0H5) -0.0179
KATNAL1 C313 (UniProt Q9BW62) -0.126
DDX24 C639 (UniProt Q9GZR7) -0.27
DDX24 C49 (UniProt Q9GZR7) 0.378
EFHD1 C8 (UniProt Q9BUP0) 0.401
UniProt Q9BTX1_C468 0.214
SETD2 C1086 (UniProt Q9BYW2) 0.305
MED28 C80 (UniProt Q9H204) 0.851
GNL3 C280 (UniProt Q9BVP2) 0.0899
CPPED1 C54 (UniProt Q9BRF8) 0.338
WDR33 C120 (UniProt Q9C0J8) 0.208
UniProt Q9BQP7_C79 0.165
ILKAP C190 (UniProt Q9H0C8) -0.0171
ASPSCR1 C109 (UniProt Q9BZE9) -0.112
HERPUD2 C28 (UniProt Q9BSE4) 0.549
SETD2 C1241 (UniProt Q9BYW2) 0.383
UniProt Q9BTE3_C3 -0.0651
UPF3B C453 (UniProt Q9BZI7) 0.333
MAF1 C88 (UniProt Q9H063) 0.436
MRPL37 C268 (UniProt Q9BZE1) 0.153
TBCD C625 (UniProt Q9BTW9) -0.0181
SLK C1138 (UniProt Q9H2G2) 0.17
UACA C994 (UniProt Q9BZF9) 0.118
UniProt Q9C0B7_C360 0.381
ZYG11B C643 (UniProt Q9C0D3) -0.2

At a glance, part of the list above:
log2 ratio of iodoacetamide-alkyne labeling, inactive:
RPAP1 C185 (UniProt Q9BWH6) 0.296
KIFC1 C663 (UniProt Q9BW19) 0.23
COPS4 C378 (UniProt Q9BT78) -0.0659
